Laboratory results published in publication PMC10893061, “Novel 2,5-Diketopiperazines with In Vitro Activities against Protozoan Parasites of Tropical Diseases” (Pharmaceuticals, 2024).
Values joined by “and” are separate entries in the source; they are usually repeats but may differ in a detail not shown here. Equal values may be shown once.

What was measured:
[1] = tested on: T. cruzi Tulahuen strain in L929 cells; test: Anti-Trypanosoma cruzi activity assay (infected L929 cells, beta-galactosidase reporter); assay type: cell-based; details: CC50 L929 cells/IC50 T. cruzi
Method: Their half-maximum cytotoxic concentrations (CC50) and their selectivity indices (SI), obtained as the ratio of the cytotoxic concentration against the bioactive concentration are shown in Table 2. Theoretically, the higher the SI value, the greater the effectiveness for the target and the lower the toxicity of the compound, characterizing a potentially safe and selective drug.
The in vitro anti-T. cruzi activity was evaluated on L929 cells (mouse fibroblasts) infected with Tulahuen strain of the parasite expressing the Escherichia coli β-galactosidase as reporter gene according to the method described previously. Briefly, four thousand L929 cells were added to each well of a 96-well microtiter plate. After an overnight incubation, a 10 fold excess of trypomastigotes were added to the cells, incubated for 2 h, then replaced with 200 μL of fresh medium and incubated for additional 48 h to establish the infection. For IC50 determination, the cells were exposed to each synthesized compound at serial decreasing dilutions and the plate was incubated for 96 h. Afterwards, 50 μL of 500 μM chlorophenol red beta-D-galactopyranoside (CPRG) in 0.5% Nonidet P40 was added to each well, and the plate incubated for 16 to 20 h, after which the absorbance at 570 nm was measured. Controls with uninfected cells, untreated infected cells, infected cells treated with benznidazole at 3.8 μM (positive control) or 1% DMSO were used. The results were expressed as the percentage of T. cruzi growth inhibition in compound tested cells as compared to the infected cells and untreated cells. The IC50 values were calculated by linear interpolation. Quadruplicates were run in the same plate, and the experiments were repeated at least once.
IC50 over T. cruzi and L929 cells were determined by linear interpolation and the selectivity index (SI) was calculated by the ratio of CC50 L929 cells/ IC50 T. cruzi.

[2] = tested on: P. falciparum chloroquine-resistant and mefloquine-sensitive W2 clone; test: Anti-Plasmodium falciparum activity assay (SYBR, erythrocytic asexual stages); assay type: cell-based; details: CC50 (BGM)/IC50 (P. falciparum)
Method: In vitro assay with P. falciparum culture were performed as described previously. […] The activity was measured using the SYBR assay with the parasite suspension (0.5% parasitemia and 2% hematocrit) with minor modifications. The test compounds, in serial dilutions, were incubated in “U” bottom 96-wells plates. After 48 h at 37 °C, the culture supernatant was removed and replaced by 100 µL of lysis buffer solution [Tris (20 mM; pH 7.5), EDTA (5 mM), saponin (0.008%; wt/vol), and Triton X 100 (0.08%; vol/vol)] followed by addition of 0.2 µL/mL SYBR Safe (Sigma-Aldrich, Carlsbad, CA, USA). The plate content was transferred to a flat bottom plate and incubated in the dark for 30 min. The plate was read in a fluorometer (Synergy H4 Hibrid Reader, Biotek) with excitation at 485 nm and 535 nm of emission. In all tests, the compound activities were expressed by the 50% inhibitory concentration of the parasite growth (IC50) when compared to the drug-free controls and estimated using the curve-fitting software Origin 8.0 (OriginLab Corporation, Northampton, MA, USA).

Compound	SI [1]	SI [2]
O=C(Cn1ccnc1[N+](=O)[O-])NCc1ccccc1 [Benznidazole, reference compound]	1080	
O=C1C(c2ccccc2F)N(c2ccccc2)C(=O)CN1c1ccc(Cl)cc1 (stereo not shown) [Compound 5]	3	<1
COc1ccc(C2C(=O)N(c3ccc(Cl)cc3)CC(=O)N2c2ccccc2)cc1Br (stereo not shown) [Compound 8]	> 50 and >55	
O=C1C(c2ccc(O)c(Br)c2)N(c2ccccc2)C(=O)CN1c1ccc(Cl)cc1 (stereo not shown) [Compound 15]	7	1
O=C1C(c2ccccc2F)N(c2ccc(F)cc2)C(=O)CN1c1ccc(Cl)cc1 (stereo not shown) [Compound 20]	2	<1
O=C1C(c2ccc(Cl)cc2)N(c2ccc(F)cc2)C(=O)CN1c1ccc(Cl)cc1 (stereo not shown) [Compound 21]	1	
O=C1C(c2c(F)cccc2Cl)N(c2ccccc2)C(=O)CN1c1ccc(Cl)cc1 (stereo not shown) [Compound 22]	> 50 and >56	
